Source: PubChem BioAssay AID1224828 (NIAID, 2016)
The whole screen tested about 17,000 reagents; shown is an unselected part. 762 of them (4.5%) were called active. 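Active calls include both raised and lowered p65 entry, mostly lowered; wells with fewer than 50 cells lack a z-score.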 The raw values are shown without normalisation. No sequences are given here.

Aim: 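Regulators linking TLR4 signalling to p65 nuclear translocation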 (primary screen)
System: mouse RAW264.7 G9 macrophage reporter cells (GFP-p65, Tnf promoter-mCherry)
Reagent: siRNA pool against mouse genes, 100 nM
Timing: 2 days siRNA transfection, then 40 min LPS before fixation
Conditions: LPS (Salmonella minnesota R595) at 10 ng/ml
Read-out: 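Microscopy ratio of nuclear to perinuclear-ring GFP-p65 signal, scaled to the plate median; gene score is the average of two replicate robust z-scores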
Direction: p65 translocation robust z-score: higher = more nuclear NF-kappaB p65 after LPS than the plate median; nuclear/cytoplasmic p65 ratio: higher = more nuclear NF-kappaB p65
Active means: 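Called active when z exceeds 3.3 or falls under -1.56 (median of Tlr4 controls), giving activity score of at least 50; no calls for control wells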
Meaning of the calls: active = hit (p65 shift raised or lowered); inactive = no clear change

gene,PubChem SID,p65 translocation robust z-score,"nuclear/cytoplasmic p65 ratio, rep 1","nuclear/cytoplasmic p65 ratio, rep 2",low cell count flag,Call
"Atp10a (ATPase, class V, type 10A)",SID315465571,-0.74,1.33,1.58,enough cells to score,inactive
Tbxa2r (thromboxane A2 receptor),SID315469600,-1.19,1.41,1.34,enough cells to score,inactive
Zfp454 (zinc finger protein 454),SID315479362,0.82,1.58,1.29,enough cells to score,inactive
Trmt9b (tRNA methyltransferase 9B),SID315481121,3.95,1.93,2.13,enough cells to score,active
Cnpy1 (canopy FGF signaling regulator 1),SID315480874,-1.04,1.23,1.46,enough cells to score,inactive
Eftud2 (elongation factor Tu GTP binding domain containing 2),SID315469361,,1.3,1.12,fewer than 50 cells per well; well left out of scoring,inactive
5330416C01Rik (RIKEN cDNA 5330416C01 gene),SID315481903,-2.38,1.14,1.06,enough cells to score,active
"Rab9b (RAB9B, member RAS oncogene family)",SID315481141,0.07,1.64,1.6,enough cells to score,inactive
Atp5f1e (ATP synthase F1 subunit epsilon),SID315472852,,1.38,1.34,fewer than 50 cells per well; well left out of scoring,inactive
Adig (adipogenin),SID315479894,,1.35,1.2,fewer than 50 cells per well; well left out of scoring,inactive
Kcnj12,SID315467579,0.17,1.59,1.44,enough cells to score,inactive
Kdm5d (lysine demethylase 5D),SID315469333,0.53,1.69,1.45,enough cells to score,inactive
Dock6 (dedicator of cytokinesis 6),SID315481190,0.32,1.47,1.57,enough cells to score,inactive
Zscan5b (zinc finger and SCAN domain containing 5B),SID315477206,1.26,1.59,1.38,enough cells to score,inactive
Skil (SKI-like proto-oncogene),SID315469266,-0.07,1.49,1.59,enough cells to score,inactive
Tnik (TRAF2 and NCK interacting kinase),SID315481991,-0.95,1.54,1.26,enough cells to score,inactive
"Pals1 (protein associated with LIN7 1, MAGUK family member)",SID315471407,0.52,1.87,1.67,enough cells to score,inactive
Hhatl (hedgehog acyltransferase-like),SID315475045,-0.16,1.5,1.44,enough cells to score,inactive
Or51b17 (olfactory receptor family 51 subfamily B member 17),SID315468328,,1.37,1.51,fewer than 50 cells per well; well left out of scoring,inactive
R74862 (expressed sequence R74862),SID315476102,0.33,1.41,1.27,enough cells to score,inactive
"Atp6v1a (ATPase, H+ transporting, lysosomal V1 subunit A)",SID315465561,0.95,1.72,1.66,enough cells to score,inactive
Ctla4 (cytotoxic T-lymphocyte-associated protein 4),SID315465838,-0.75,1.36,1.29,enough cells to score,inactive
Or7g22 (olfactory receptor family 7 subfamily G member 22),SID315480225,2.97,1.84,1.61,enough cells to score,inactive
"Cacna1h (calcium channel, voltage-dependent, T type, alpha 1H subunit)",SID315471883,0.02,1.56,1.67,enough cells to score,inactive
Hspa13 (heat shock protein family A (Hsp70) member 13),SID315476951,-0.07,1.49,1.6,enough cells to score,inactive
"Atp1b2 (ATPase, Na+/K+ transporting, beta 2 polypeptide)",SID315465546,-0.12,1.44,1.64,enough cells to score,inactive
Slc9b2,SID315476093,-0.92,1.53,1.56,enough cells to score,inactive
Esm1 (endothelial cell-specific molecule 1),SID315474279,-0.43,1.5,1.23,enough cells to score,inactive
Or4a69 (olfactory receptor family 4 subfamily A member 69),SID315480129,-1.57,1.37,1.15,enough cells to score,active
"Clec2h (C-type lectin domain family 2, member h)",SID315476030,0.2,1.68,1.76,enough cells to score,inactive
Or4a39 (olfactory receptor family 4subfamily A member 39),SID315480433,0.33,1.73,1.41,enough cells to score,inactive
Rpusd2 (RNA pseudouridylate synthase domain containing 2),SID315480956,,1.07,1.25,fewer than 50 cells per well; well left out of scoring,inactive
3010003L21Rik (RIKEN cDNA 3010003L21 gene),SID315476796,,1.14,1.03,fewer than 50 cells per well; well left out of scoring,inactive
Zfp27 (zinc finger protein 27),SID315470107,-0.76,1.32,1.16,enough cells to score,inactive
Stxbp2 (syntaxin binding protein 2),SID315469521,,1.22,1.09,fewer than 50 cells per well; well left out of scoring,inactive
"Fam78a (family with sequence similarity 78, member A)",SID315479562,-0.03,1.35,1.55,enough cells to score,inactive
Or56a4 (olfactory receptor family 56 subfamily A member 4),SID315479741,,1.32,1.25,fewer than 50 cells per well; well left out of scoring,inactive
"Ftl2-ps (ferritin light polypeptide 2, pseudogene)",SID315466760,0.91,1.77,1.55,enough cells to score,inactive
Pfdn2 (prefoldin 2),SID315468476,-1.12,1.36,1.21,enough cells to score,inactive
"Vmn1r-ps103 (vomeronasal 1 receptor, pseudogene 103)",SID315477321,0.16,1.39,1.26,enough cells to score,inactive

3 entries from above, sorted by “nuclear/cytoplasmic p65 ratio, rep 2”, highest first.
gene,PubChem SID,p65 translocation robust z-score,"nuclear/cytoplasmic p65 ratio, rep 1","nuclear/cytoplasmic p65 ratio, rep 2",low cell count flag,Call
"Rab9b (RAB9B, member RAS oncogene family)",SID315481141,0.07,1.64,1.6,enough cells to score,inactive
Eftud2 (elongation factor Tu GTP binding domain containing 2),SID315469361,,1.3,1.12,fewer than 50 cells per well; well left out of scoring,inactive
5330416C01Rik (RIKEN cDNA 5330416C01 gene),SID315481903,-2.38,1.14,1.06,enough cells to score,active
